Data reported in doi:10.1101/822957.
These are yes or no findings as the source states them, for the method shown. For some of these results: In cells and extracts the contact can be indirect. Some binding calls cover weakened binding; strength is not graded here.

By UniProt entry, the sequences of proteins in these tests, tags left out. Where a name states a change or a piece, a line headed by the entry shows the natural chain unless it says otherwise. Chains listed by the source or under a name are the forms on record and can include a tag or linker. Residues count along the entry.
UniProt P08908: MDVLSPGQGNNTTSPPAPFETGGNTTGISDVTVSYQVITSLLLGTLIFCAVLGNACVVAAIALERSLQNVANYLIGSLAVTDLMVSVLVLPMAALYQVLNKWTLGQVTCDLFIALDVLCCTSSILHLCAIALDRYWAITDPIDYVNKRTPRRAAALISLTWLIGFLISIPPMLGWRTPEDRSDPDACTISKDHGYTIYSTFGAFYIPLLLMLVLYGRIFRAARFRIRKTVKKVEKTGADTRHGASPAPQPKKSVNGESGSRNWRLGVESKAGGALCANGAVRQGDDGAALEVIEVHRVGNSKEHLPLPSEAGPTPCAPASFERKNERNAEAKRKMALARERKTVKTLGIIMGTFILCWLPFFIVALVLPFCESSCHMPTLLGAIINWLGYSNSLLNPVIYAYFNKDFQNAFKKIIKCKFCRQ
UniProt P28222: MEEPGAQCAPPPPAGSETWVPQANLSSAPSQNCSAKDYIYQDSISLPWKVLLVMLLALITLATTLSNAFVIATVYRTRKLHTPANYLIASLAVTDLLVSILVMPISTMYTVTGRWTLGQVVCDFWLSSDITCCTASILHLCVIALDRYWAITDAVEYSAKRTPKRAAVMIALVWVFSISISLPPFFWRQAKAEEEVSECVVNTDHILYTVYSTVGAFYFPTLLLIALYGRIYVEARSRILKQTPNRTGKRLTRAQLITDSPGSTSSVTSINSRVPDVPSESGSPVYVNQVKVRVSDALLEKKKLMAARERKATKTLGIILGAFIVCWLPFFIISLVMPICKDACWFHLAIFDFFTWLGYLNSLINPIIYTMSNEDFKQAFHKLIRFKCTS
Arr2 (1-393, wild type) with SmBiT at its N-terminus (P49407, residues 1-393): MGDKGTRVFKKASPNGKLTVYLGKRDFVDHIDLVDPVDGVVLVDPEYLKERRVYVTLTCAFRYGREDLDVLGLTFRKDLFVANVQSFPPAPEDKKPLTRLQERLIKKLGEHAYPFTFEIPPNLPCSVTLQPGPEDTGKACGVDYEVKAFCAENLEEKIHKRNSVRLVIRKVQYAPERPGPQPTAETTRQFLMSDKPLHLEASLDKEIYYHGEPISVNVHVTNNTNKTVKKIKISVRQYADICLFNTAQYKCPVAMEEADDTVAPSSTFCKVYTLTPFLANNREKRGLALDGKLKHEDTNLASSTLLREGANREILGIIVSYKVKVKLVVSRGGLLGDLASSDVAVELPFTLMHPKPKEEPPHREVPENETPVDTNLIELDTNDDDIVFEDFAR
Arr2 (1-393, 3A) with SmBiT at its N-terminus (P49407, form named): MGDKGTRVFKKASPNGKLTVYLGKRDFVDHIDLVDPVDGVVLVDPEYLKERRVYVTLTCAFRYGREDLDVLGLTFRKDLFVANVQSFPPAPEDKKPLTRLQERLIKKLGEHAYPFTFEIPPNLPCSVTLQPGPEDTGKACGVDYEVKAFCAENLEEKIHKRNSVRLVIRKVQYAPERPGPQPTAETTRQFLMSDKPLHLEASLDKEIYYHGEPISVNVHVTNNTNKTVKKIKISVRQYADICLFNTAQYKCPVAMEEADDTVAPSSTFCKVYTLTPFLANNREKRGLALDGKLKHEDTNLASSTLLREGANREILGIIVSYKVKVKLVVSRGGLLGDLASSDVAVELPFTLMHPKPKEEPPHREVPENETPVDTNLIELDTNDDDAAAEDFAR

Key:
[1] = biological target: NTSR1 (1-418, wild type)-TEV site-tTA (human) (UniProt P30989); assay: Tango assay
[2] = biological target: 5-HTR1A (NanoBiT construct) (UniProt P08908); assay: split reporter
[3] = biological target: 5-HTR1B (NanoBiT construct) (UniProt P28222); assay: split reporter
[4] = biological target: NTSR1 (1-418, wild type) with LgBiT at its C-terminus (human) (UniProt P30989); assay: split reporter

Substance | binding [1] | binding [2] | binding [3] | binding [4]
Arr2 3A mutant-TEV protease (from UniProt P49407 1-393) | binds | – | – | –
Arr2 (1-393, 3A) with SmBiT at its N-terminus (from UniProt P49407 1-393) | – | binds | binds | binds
Arr2 (1-393, wild type) with SmBiT at its N-terminus (from UniProt P49407 1-393) | – | binds | binds | binds
